Results as given in publication PMC4764856.

By UniProt entry, the sequences of proteins in these tests, tags left out. Where a name states a change or a piece, a line headed by the entry shows the natural chain unless it says otherwise.
UniProt Q15796: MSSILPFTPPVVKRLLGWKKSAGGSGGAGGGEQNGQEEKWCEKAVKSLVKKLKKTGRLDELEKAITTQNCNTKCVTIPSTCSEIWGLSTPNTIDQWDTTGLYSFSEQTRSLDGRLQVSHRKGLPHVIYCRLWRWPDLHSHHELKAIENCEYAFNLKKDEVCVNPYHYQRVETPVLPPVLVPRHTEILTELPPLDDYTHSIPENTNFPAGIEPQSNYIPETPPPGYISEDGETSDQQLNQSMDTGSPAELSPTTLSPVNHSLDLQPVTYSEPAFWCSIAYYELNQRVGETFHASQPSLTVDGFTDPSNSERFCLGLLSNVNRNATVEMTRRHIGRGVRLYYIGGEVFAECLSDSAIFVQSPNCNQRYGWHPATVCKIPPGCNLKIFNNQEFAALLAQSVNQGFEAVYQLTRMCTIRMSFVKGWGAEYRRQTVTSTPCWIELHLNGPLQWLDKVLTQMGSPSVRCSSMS
UniProt Q13485: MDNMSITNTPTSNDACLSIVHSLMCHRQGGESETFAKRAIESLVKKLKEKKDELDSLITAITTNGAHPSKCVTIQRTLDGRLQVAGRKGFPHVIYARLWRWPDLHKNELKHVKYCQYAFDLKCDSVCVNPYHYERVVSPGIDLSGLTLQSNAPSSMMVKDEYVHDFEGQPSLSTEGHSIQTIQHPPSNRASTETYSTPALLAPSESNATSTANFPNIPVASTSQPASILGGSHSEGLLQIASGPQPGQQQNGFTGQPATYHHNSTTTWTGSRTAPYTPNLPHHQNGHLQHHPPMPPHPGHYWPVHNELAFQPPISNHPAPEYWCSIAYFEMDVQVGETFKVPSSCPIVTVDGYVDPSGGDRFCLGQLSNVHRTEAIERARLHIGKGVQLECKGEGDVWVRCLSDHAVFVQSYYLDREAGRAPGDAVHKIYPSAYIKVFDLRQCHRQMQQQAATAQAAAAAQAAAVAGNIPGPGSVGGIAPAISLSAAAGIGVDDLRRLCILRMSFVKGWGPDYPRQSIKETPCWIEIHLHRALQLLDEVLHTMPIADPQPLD

Molecular target: GFP-Smad2 with TID domain deletion (UniProt Q15796)
Experiment: co-IP; HEK 293 cells stably expressing the GFP fusion, with or without Activin for 1 hr; lysed in cold RIPA buffer; GFP antibody with Protein-G Sepharose beads, 4 °C overnight; blot with anti-Smad4

binding: binds
Substance: Smad4 (from UniProt Q13485 1-552)

No constants are given. Whether binding was seen depends on the method and setting. In cells and extracts the contact can be indirect. Binding calls can cover weak binding; strength is not graded here.
